Data published in PubChem BioAssay AID588590 (National Center for Advancing Translational Sciences (NCATS), 2011).
About 4,000 (1%) of roughly 390,000 compounds were called active. This list was built around the results that the source calls inconclusive (neither active nor inactive); the mix of calls is not that of the screen. The call rests on the fitted dose curve; in most records, active means well fitted inhibition curve with a large enough effect; inconclusive means small, poorly fitted or top-dose-only effect, or another doubt; inactive means no such curve, though single readings can be large or run the other way. Where the call is inconclusive, the potency comes from a doubtful curve fit.

Sequences of proteins named here, by UniProt entry; tags and fusion partners are left off. A change or cut given only in a name is not applied to a line headed by its entry.
UniProt Q9UNA4: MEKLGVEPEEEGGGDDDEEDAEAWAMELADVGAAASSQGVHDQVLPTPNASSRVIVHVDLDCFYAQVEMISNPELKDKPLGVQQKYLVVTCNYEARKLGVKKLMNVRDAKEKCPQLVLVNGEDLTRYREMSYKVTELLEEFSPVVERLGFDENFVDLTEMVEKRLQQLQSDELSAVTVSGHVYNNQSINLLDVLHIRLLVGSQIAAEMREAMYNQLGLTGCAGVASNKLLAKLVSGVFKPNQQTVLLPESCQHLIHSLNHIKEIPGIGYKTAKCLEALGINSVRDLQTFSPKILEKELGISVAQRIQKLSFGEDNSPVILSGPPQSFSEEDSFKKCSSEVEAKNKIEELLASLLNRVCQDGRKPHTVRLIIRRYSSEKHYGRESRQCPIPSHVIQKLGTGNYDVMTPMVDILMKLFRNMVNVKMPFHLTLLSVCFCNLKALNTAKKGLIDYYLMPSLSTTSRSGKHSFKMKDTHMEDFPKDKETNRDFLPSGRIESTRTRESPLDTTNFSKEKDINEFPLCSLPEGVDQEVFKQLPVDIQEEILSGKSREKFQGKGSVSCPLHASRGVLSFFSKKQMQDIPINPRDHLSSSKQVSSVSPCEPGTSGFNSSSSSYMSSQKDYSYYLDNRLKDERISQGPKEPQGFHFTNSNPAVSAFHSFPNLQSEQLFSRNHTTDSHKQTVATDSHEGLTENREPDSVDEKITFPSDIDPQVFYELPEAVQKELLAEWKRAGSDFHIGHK

Biological target: DNA polymerase iota (Homo sapiens) (UniProt Q9UNA4)
Test: qHTS for Inhibitors of Polymerase Iota
Conditions: Pol iota fluorescent replication assay, 10 min; series mostly up to 115 µM; activity, negative = inhibition: at the top concentration
Method in brief: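 Fluorescent replication assay read twice, at 0 min and 10 min after adding 50 nM (final) substrate. Enzyme (10 nM) and compounds were first incubated 15 min at room temperature; enzyme-free buffer wells were negative controls.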
Potency means the concentration at half of the fitted maximal effect.

Compound | activity, negative = inhibition | Potency
CS(=O)(=O)c1ccc(C2=C(c3ccccc3)C(=O)OC2)cc1 | inactive: 3.95% | 
O=C(NCc1ccccc1)c1ccc(NC(=O)C2CCCC2)cc1 | inactive: 35.9% | 
O=C(O)CC/C(=C\c1cccc(NC(=O)c2ccccc2Cl)c1)c1nc2ccccc2s1 | inactive: -10.6% | 
CC(C(=O)N1c2ccccc2CC1C)N1CCN(S(=O)(=O)c2ccccc2F)CC1 (stereo not given) |  | inconclusive: 79.4 µM [inhibitor, single point]
CCc1cc2c(NC(Cc3ccccc3)C(=O)O)nc(C)nc2s1 (stereo not given) |  | inconclusive: 39.8 µM [inhibitor, single point]
Cc1cccc(NC(=O)C(=O)NCCc2sc(-c3ccccc3)nc2C)c1C | inactive: 27.5% | 
COc1ccc(CC(=O)Nc2ccc(NC(=O)c3ccccc3F)cc2)cc1 |  | inconclusive: 22.4 µM [inhibitor, full curve, poor fit]
Oc1ccc(/C=N/N2CCN(C3c4ccccc4-c4ccccc43)CC2)cc1O | inactive: 48.1% | 
CCOc1ccccc1/C=N/NC(=O)c1cccc(S(=O)(=O)N(CC)CC)c1 | inactive: 30.8% | 
CCOc1ccccc1/C=C(\C(=O)O)c1ccc(S(=O)(=O)N2CCCCC2)s1 |  | inconclusive: 70.8 µM [inhibitor, single point]
CCC1CCCCN1C(=O)Nc1cc(Cl)ccc1OC (stereo not given) |  | inconclusive: 39.8 µM [inhibitor, single point]
O=C(CCN1C(=O)/C(=C/C=C/c2ccccc2)SC1=S)Nc1nccs1 |  | inconclusive: 0.708 µM [inhibitor, full curve, poor fit]
Cc1ccc(C(=O)OCC(=O)c2c[nH]c3ccccc23)cc1NC(=O)c1ccco1 | inactive: 85.5% | 
COc1ccc(C(=O)Nn2cnc3ccccc3c2=O)cc1[N+](=O)[O-] |  | inconclusive: 63.1 µM [inhibitor, single point]
CCOc1ccc(CCN2C(=O)c3ccc(C(=O)O)cc3C2=O)cc1OCC | inactive: 45.5% | 
CC(CNC(=O)c1cc(-c2ccccc2)n[nH]1)c1ccccc1 (stereo not given) | inactive: 26.3% | 
O=C(CS(=O)c1ccc(C(F)(F)F)cc1[N+](=O)[O-])Oc1ccccc1 (stereo not given) |  | inconclusive: 14.1 µM [inhibitor, partial curve, poor fit]
CCOc1ccc(NC(=O)CN(C)C(=O)c2ccc3c(c2)S(=O)(=O)N=C2CCCCCN23)cc1OCC | inactive: 14.1% | 
CCn1nc(C(=O)Nc2cccc3ccccc23)c(Cl)c1Cl |  | inconclusive: 39.8 µM [inhibitor, single point]
COc1ccccc1-n1c(SCC(=O)O)nc2sc3c(c2c1=O)CCC3 |  | inconclusive: 25.1 µM [inhibitor, partial curve, poor fit]

Taken from above.
Potency with `CCc1cc2c(NC(Cc3ccccc3)C(=O)O)nc(C)nc2s1` (stereo not given) is entered as inconclusive: 39.8 µM [inhibitor, single point]
activity, negative = inhibition with `O=C(NCc1ccccc1)c1ccc(NC(=O)C2CCCC2)cc1` is entered as inactive: 35.9%
